# Results deposited as PubChem BioAssay AID1159584 (Peter MacCallum Cancer Centre, 2016)
# Assay: 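Knock-downs that harm CDH1-null cells more than parental MCF10A cells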 (primary screen)
# Cell system: human MCF10A breast epithelial cells, parental and CDH1-null
# Knock-down reagent: siRNA against human genes
# Read-out: 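Cell viability by CellTiter-Glo ATP luminescence, each line scaled to the mean of mock wells across plates, then CDH1-null over parental ratio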
# Reading the numbers: CDH1-null / parental viability ratio: higher = CDH1-null cells survive relatively better than parental; CDH1-null viability vs mock: higher = more viable CDH1-null cells; parental viability vs mock: higher = more viable parental cells
# In all, the deposit lists about 18,000 reagents; shown is an unselected part. The record does not give: the amount of reagent, the time to read-out.
gene symbol,CDH1-null / parental viability ratio,CDH1-null viability vs mock (fraction of mock),parental viability vs mock (fraction of mock)
ESRP1 (epithelial splicing regulatory protein 1),1,0.9,0.9
ATP4A (ATPase H+/K+ transporting subunit alpha),0.93,1.02,1.1
RCAN3 (regulator of calcineurin 3),0.77,0.65,0.84
NSUN5 (NOP2/Sun RNA methyltransferase 5),0.99,0.97,0.98
DEFB107B (defensin beta 107B),0.96,0.81,0.84
HADH (hydroxyacyl-CoA dehydrogenase),0.77,0.68,0.88
PNPLA3,1.02,0.62,0.61
TTK (TTK protein kinase),1.04,0.72,0.69
PIGF (phosphatidylinositol glycan anchor biosynthesis class F),1.16,0.96,0.83
CYP2B6 (cytochrome P450 family 2 subfamily B member 6),0.96,0.48,0.5
COX20 (cytochrome c oxidase assembly factor COX20),1.29,0.88,0.68
"TFAM (transcription factor A, mitochondrial)",1.17,1.24,1.06
RAB11FIP1 (RAB11 family interacting protein 1),0.94,0.62,0.66
LGALS1 (galectin 1),1.08,0.65,0.6
YEATS2 (YEATS domain containing 2),0.71,0.64,0.9
TMEM105 (TMEM105 long non-coding RNA),1.09,1.02,0.94
NDUFS3 (NADH:ubiquinone oxidoreductase core subunit S3),1.17,0.76,0.65
OSBPL2 (oxysterol binding protein like 2),1.23,0.87,0.71
ADGRL4 (adhesion G protein-coupled receptor L4),1.61,1,0.62
NUP107 (nucleoporin 107),0.87,0.48,0.55
IQCC (IQ motif containing C),0.87,0.84,0.97
ZNF682 (zinc finger protein 682),0.94,0.75,0.8
OSER1 (oxidative stress responsive serine rich 1),1.08,0.4,0.37
ESYT1 (extended synaptotagmin 1),1.03,0.8,0.78
USP26 (ubiquitin specific peptidase 26),1.09,0.76,0.7
KIFC1 (kinesin family member C1),0.87,0.78,0.9
RPL7 (ribosomal protein L7),1.12,0.38,0.34
GPIHBP1,0.89,0.48,0.54
MATN4 (matrilin 4),0.87,0.52,0.6
GRIK1 (glutamate ionotropic receptor kainate type subunit 1),1.36,1.1,0.81
EPHA5 (EPH receptor A5),0.92,0.94,1.02
SMOX (spermine oxidase),1.11,0.99,0.89
PSKH1 (protein serine kinase H1),1.05,0.9,0.86
PIGR (polymeric immunoglobulin receptor),0.72,0.46,0.64
CYB561A3 (cytochrome b561 family member A3),2,0.6,0.3
PRDM12 (PR/SET domain 12),0.96,0.71,0.74
"NPLOC4 (NPL4 homolog, ubiquitin recognition factor)",0.94,0.96,1.02
UBXN1 (UBX domain protein 1),0.97,0.97,1
RNF215 (ring finger protein 215),0.93,0.64,0.69
LPXN (leupaxin),0.94,0.84,0.89
BCAS1 (brain enriched myelin associated protein 1),1.28,0.92,0.72

Part of the list above, set out differently.
| gene symbol | CDH1-null / parental viability ratio | CDH1-null viability vs mock (fraction of mock) | parental viability vs mock (fraction of mock) |
| --- | --- | --- | --- |
| MATN4 (matrilin 4) | 0.87 | 0.52 | 0.6 |
| GRIK1 (glutamate ionotropic receptor kainate type subunit 1) | 1.36 | 1.1 | 0.81 |
| EPHA5 (EPH receptor A5) | 0.92 | 0.94 | 1.02 |
| SMOX (spermine oxidase) | 1.11 | 0.99 | 0.89 |
| PSKH1 (protein serine kinase H1) | 1.05 | 0.9 | 0.86 |
| PIGR (polymeric immunoglobulin receptor) | 0.72 | 0.46 | 0.64 |
| CYB561A3 (cytochrome b561 family member A3) | 2 | 0.6 | 0.3 |
| PRDM12 (PR/SET domain 12) | 0.96 | 0.71 | 0.74 |
| NPLOC4 (NPL4 homolog, ubiquitin recognition factor) | 0.94 | 0.96 | 1.02 |

The listing continues.
gene symbol,CDH1-null / parental viability ratio,CDH1-null viability vs mock (fraction of mock),parental viability vs mock (fraction of mock)
NINJ1 (ninjurin 1),1.03,0.4,0.39
MRPL51 (mitochondrial ribosomal protein L51),1.04,0.73,0.7
TPSD1 (tryptase delta 1),1.39,0.86,0.62
IRX2-DT (IRX2 divergent transcript),0.78,0.76,0.97
TTLL10 (tubulin tyrosine ligase like 10),0.91,0.64,0.7
KIAA2013,1.41,0.93,0.66
SPATS2L (spermatogenesis associated serine rich 2 like),1.21,0.94,0.78
MRPL39 (mitochondrial ribosomal protein L39),1.08,0.94,0.87
RWDD3 (RWD domain containing 3),1.08,0.98,0.91
CTSS (cathepsin S),1.21,0.8,0.66
ZDHHC18 (zDHHC palmitoyltransferase 18),1.27,0.76,0.6
IGFL4 (IGF like family member 4),1.02,0.92,0.9
SAMD15 (sterile alpha motif domain containing 15),1.06,0.38,0.36
JPH1 (junctophilin 1),1.06,0.68,0.64
"ZNF833P (zinc finger protein 833, pseudogene)",0.84,0.7,0.83
SLC5A3,1.35,1,0.74
ITPRIPL2 (ITPRIP like 2),1.01,1,0.99
EGF (epidermal growth factor),0.94,0.89,0.95
TMED4 (transmembrane p24 trafficking protein 4),1.18,0.66,0.56
ZNF230 (zinc finger protein 230),0.95,0.93,0.98
IL23R (interleukin 23 receptor),0.97,0.97,1
SNU13 (small nuclear ribonucleoprotein 13),1.21,0.86,0.71
REXO4 (RNA exonuclease 4),0.85,0.72,0.85
MFSD6L (major facilitator superfamily domain containing 6 like),1.08,0.8,0.74
CRMA (cardiomyocyte maturation associated lncRNA),1.25,0.4,0.32
LIMS2 (LIM zinc finger domain containing 2),1.29,0.76,0.59
GGTLC1 (gamma-glutamyltransferase light chain 1),0.99,0.83,0.84
